# Measurements published in patent US20250017215A1, “LIQUID CARRIER CONCENTRATE COMPRISING AT LEAST ONE BENEFICIAL MICROORGANISM AND USES THEREOF” (priority 2021, published 2025).
# Some entries share one result that the patent states for a list of compounds.
# Tests used:
# Paecilomyces lilacinus = assay: Microbial viability of liquid carrier concentrates upon accelerated storage stability study (shelf-life), colony counting; type: cell-based; details: storage at 25° C.
# Protocol: (§1) Standard procedure for microbial viability assessment of liquid carrier concentrates upon accelerated storage stability study (Shelf-life assessment) In order to evaluate the shelf-life of liquid carrier concentrate of the fungi, the liquid carrier concentrates were prepared by mixing 5 wt % of a commercial product (biopesticide) containing a beneficial microorganism and 95 wt % of the solvent to be tested.
# (§2) The commercial products tested were in powder form, and the beneficial microorganisms in the composition were: • Beauveria bassiana, • Paecilomyces lilacinus.
# (§3) For comparison, a control experiment without the solvent was prepared. For Beauveria bassiana and Paecilomyces lilacinus, 5 wt % of the powder commercial product was added to 95 wt % soybean oil, 2-ethylhexyl lactate or isoamyl laurate.
# (§4) The preparations were incubated under accelerated temperature test conditions, at 25° C. and the viability of the microorganism was evaluated after 0, 15 days, 1 month, 3 months, 6 months, 9 months, 12 months and 14 months of incubation without agitation. Trials were performed in duplicates.
# (§5) To confirm that the microorganisms were viable after determined incubation/storage time, traditional serial dilution and plating of the samples for colony counting were performed. […]
# (§6) The number of the colonies on each petri dish was counted and the results are expressed by colony forming units (CFU)/mL. […]
# Beauveria bassiana = assay: as above; type: cell-based; details: storage at 25° C.
# Protocol: as §1, §2, §3, §4, §5, §6
structure (smiles),measurement,setting,value
CCCCCCCCCCCC(=O)OCCC(C)C [isoamyl laurate],Viability after 6 or 9 months storage,Paecilomyces lilacinus,less than 1E+04 CFU/mL
same,Viability after 6 or 9 months storage,Beauveria bassiana,less than 1E+04 CFU/mL
